Measured values published in patent publication US20140322434A1, “METHODS FOR PRODUCING ELECTROPHOTOGRAPHIC PHOTOSENSITIVE MEMBER AND ORGANIC DEVICE EACH HAVING CHARGE TRANSPORTING LAYER” (CANON KABUSHIKI KAISHA, priority 2011, published 2014).
Some entries share one result that the patent states for a list of compounds. For at least one compound, name, drawing or mass did not settle the structure.

Assay: Solubility of second liquid in the first liquid at 25° C. and 1 atm

With COCOC [Second liquid example (2), dimethoxymethane] the “solubility in the first liquid example (4)” value (first liquid chlorobenzene) was ≥ 100 mass % and the “solubility in the first liquid example (7)” value (first liquid phenetole) was ≥ 100 mass %.
